Experimental data: the supplement of paper PMC12009310
Where a name gives a salt, the structure may show the parent alone. ± gives the standard deviation of the averaged measurements. Some of the results follow. Plates or batches differ in their baseline, so values are only roughly comparable.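 The cells are a mouse kidney inner medullary collecting duct line, silenced either for the ciliary gene Rpgrip1l or with a non-targeting control siRNA.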

test system: mIMCD3; test: robust z score of cell number vs plate controls; higher = more cells (less cytotoxic); details: 10 µM; 48 h; siRNA: siScr

SMILES | robust z score of cell number
CC(=O)NCCc1c[nH]c2ccccc12 [N-Acetyltryptamine] | -2.77 ± 15
C[C@@H]1O[C@@H](O[C@H]2C[C@@H](O)[C@]3(CO)[C@H]4[C@H](O)C[C@]5(C)[C@@H](C6=CC(=O)OC6)CC[C@]5(O)[C@@H]4CC[C@]3(O)C2)[C@H](O)[C@H](O)[C@H]1O [Ouabain] | -3.46 ± 0.72
c1ccc2c(c1)OCC(C1=NCCN1)O2 (configuration not stated) [Idazoxan hydrochloride] | -22 ± 0.96
O=C(O)/C=C/CO [trans-4-Hydroxycrotonic acid] | 5.26 ± 9.4
CN[C@@H]1C[C@@H](c2ccc(Cl)c(Cl)c2)c2ccccc21 [Indatraline hydrochloride] | -44.5 ± 11
N[C@@]1(C(=O)O)CC[C@@H](C(=O)O)C1 | -1.02 ± 6.4
COc1ccc(C(=O)N2CCCC2=O)cc1 [Aniracetam] | 0.234 ± 1.7
O=C(CCCN1CCC2(CC1)C(=O)N(Cc1cccc(F)c1)CN2c1ccccc1)c1ccc(F)cc1 [3'-Fluorobenzylspiperone maleate] | -42.6 ± 7
CCCCCCC[n+]1ccc(-c2cc[n+](CCCCCCC)cc2)cc1 [DHBP dibromide] | -36.5 ± 5.7
CC(C)C[C@@H](N)C1(c2ccc(Cl)cc2)CCC1 | -2.77 ± 5.5
Cc1onc(O)c1CC(N)C(=O)O (racemic) | -2.92 ± 2.8
CCN1C[C@]2(COC(=O)c3ccccc3N3C(=O)C[C@H](C)C3=O)CC[C@H](OC)[C@@]34[C@@H]5C[C@H]6[C@H](OC)[C@@H]5[C@](O)(C[C@@H]6OC)[C@](O)([C@@H](OC)[C@H]23)[C@@H]14 [Methyllycaconitine citrate] | 2.65 ± 2.6
NCc1cc(O)no1 [Muscimol] | 1.35 ± 3.5
Cc1nnc2ccc(-c3cccc(C(F)(F)F)c3)nn12 | -5.22 ± 4.5
CCCN(CCC)C1CCc2cccc(O)c2C1 (configuration not stated) [8-Hydroxy-DPAT hydrobromide] | -1.81 ± 2.1
Cc1[nH]c2ccc(Cl)cc2c1C1=CCNCC1 | -1.97 ± 0.67
O=c1[nH]c2ccccc2n1C1CCN(CCCC(c2ccc(F)cc2)c2ccc(F)cc2)CC1 [Pimozide] | -29.6 ± 15
C[C@@H]1CC[C@H]2[C@@H](C)C(=O)O[C@@H]3O[C@@]4(C)CC[C@@H]1[C@]32OO4 [Artemisinin] | -52.4 ± 44
c1ccc2c(c1)[I+]c1ccccc1-2 [Diphenyleneiodonium chloride] | -141 ± 120

SMILES | robust z score of cell number
CC(C)NCC(O)c1ccc(N)c(C#N)c1 (configuration not stated) [Cimaterol] | -1.52 ± 5
S=C=Nc1cccc(C2(N3CCCCC3)CCCCC2)c1 [Metaphit] | -12.3 ± 15
COc1ccc(CNC(=O)/C=C/c2ccc3[nH]cc(CCN(C)C)c3c2)cc1 | -2.3 ± 0.084
Cc1cc(C)cc(C(=O)OC2C[C@H]3CC[C@@H](C2)N3C)c1 (some centres not stated) [Tropanyl-3,5-dimethylbenzoate] | -127 ± 110
COc1ccc2[nH]cc(C3=CCNCC3)c2c1 | -6.44 ± 5.5
N[C@H](C(=O)O)c1cc(O)no1 [Ibotenic acid] | 3.44 ± 2.5
c1ccc(C2CC2)c(OCC2=NCCN2)c1 [Cirazoline hydrochloride] | -0.617 ± 1.4
COc1ccc(-n2nc(C(F)(F)F)cc2-c2ccc(Cl)cc2)cc1 | -44.5 ± 11
CC(CN)CC(=O)O (configuration not stated) [3-Methyl-GABA] | 1.52 ± 0.2
CN1[C@@H]2CC[C@H]1C[C@@H](OC(=O)c1cc(Cl)cc(Cl)c1)C2 | -128 ± 120
O=Cc1cn(Cc2ccc(Cl)cc2)c2ccccc12 [Oncrasin 1] | -4.92 ± 0.77
C[C@H](N)Cc1cnc[nH]1 [(S)-(+)-a-Methylhistamine dihydrobromide] | 17.2 ± 20
CN1C[C@H](C(=O)N[C@]2(C)O[C@@]3(O)[C@@H]4CCCN4C(=O)[C@H](Cc4ccccc4)N3C2=O)C[C@@H]2c3cccc4[nH]cc(c34)C[C@H]21 [Dihydroergotamine mesylate] | -13.6 ± 3.7
O=C(CCCN1CCC2(CC1)C(=O)NCN2c1ccccc1)c1ccc(F)cc1 [Spiperone hydrochloride] | -23.2 ± 11
C[C@@]12N[C@@H](Cc3ccccc31)c1ccccc12 [(-)-MK 801 maleate] | 0.567 ± 1.1
CC(C)(C)NCC(O)COc1cccc2[nH]c(C#N)cc12 (configuration not stated) [Cyanopindolol hemifumarate] | -2.18 ± 4.1
C[N+]1(C)CCc2cc3c(cc2[C@H]1[C@@H]1OC(=O)c2c1ccc1c2OCO1)OCO3 [(-)-Bicuculline methochloride] | -10.4 ± 6.3
N=C(NCc1ccc(Cl)cc1)SCCCc1c[nH]cn1 [Clobenpropit dihydrobromide] | -7.19 ± 5.3

In another format: two of the compounds above
SMILES	robust z score of cell number
CC(CN)CC(=O)O (configuration not stated) [3-Methyl-GABA]	1.52 ± 0.2
CN1[C@@H]2CC[C@H]1C[C@@H](OC(=O)c1cc(Cl)cc(Cl)c1)C2	-128 ± 120
